# The supplement of paper PMC10032668
# The chains behind the UniProt entries cited, without tags or fusion partners.
# PCBP2, Q15366, UniProt Q15366, whole entry: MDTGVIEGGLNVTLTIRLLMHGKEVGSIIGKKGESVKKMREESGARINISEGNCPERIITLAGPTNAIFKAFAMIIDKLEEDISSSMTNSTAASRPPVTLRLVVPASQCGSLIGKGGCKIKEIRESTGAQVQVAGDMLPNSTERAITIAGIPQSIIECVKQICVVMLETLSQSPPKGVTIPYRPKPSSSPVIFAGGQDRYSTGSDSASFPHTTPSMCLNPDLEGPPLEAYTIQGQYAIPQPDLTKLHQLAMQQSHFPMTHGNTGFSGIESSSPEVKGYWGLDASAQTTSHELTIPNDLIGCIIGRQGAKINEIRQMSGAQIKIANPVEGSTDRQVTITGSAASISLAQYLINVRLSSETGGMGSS
# TUBB6, Q9BUF5, UniProt Q9BUF5, whole entry: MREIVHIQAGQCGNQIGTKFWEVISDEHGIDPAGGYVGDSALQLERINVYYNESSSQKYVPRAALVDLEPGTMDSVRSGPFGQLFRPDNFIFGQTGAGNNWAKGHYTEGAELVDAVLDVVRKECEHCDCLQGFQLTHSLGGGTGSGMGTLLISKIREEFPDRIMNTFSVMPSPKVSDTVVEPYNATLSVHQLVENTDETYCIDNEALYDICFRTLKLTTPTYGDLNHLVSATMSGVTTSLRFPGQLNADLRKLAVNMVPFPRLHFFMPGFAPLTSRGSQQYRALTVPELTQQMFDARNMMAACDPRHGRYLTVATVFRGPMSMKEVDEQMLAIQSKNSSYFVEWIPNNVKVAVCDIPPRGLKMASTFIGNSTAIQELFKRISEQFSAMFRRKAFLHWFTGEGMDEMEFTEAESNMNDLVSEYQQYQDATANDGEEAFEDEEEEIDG
# The other results are listed elsewhere or left out. Only hits are listed; about a third recur on repeated control peptides.
# How the values were obtained:
# Assay in all cases: PRISMA enrichment of interactor (LFQ) in peptide spot vs all other peptide spots (log2 fold change); higher = stronger / more specific binding of the interactor to the peptide
# ADNP, Q9H2P0 = biological target: ADNP, Q9H2P0
# Method: (§1)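 PRISMA: 15-aa overlapping tiles (offset 8 aa) of 60 microproteins, plus SOS1/GLUT1 control peptides, were spot-synthesized on cellulose membranes in triplicate. Membranes were incubated with benzonase-treated HEK293T lysate, and bound proteins were identified by LC-MS/MS with LFQ. Enrichment is the log2 fold change of each protein in one spot versus all other spots. Only interactors passing the significance cutoff are listed.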
# CDC20, Q12834 = biological target: CDC20, Q12834
# Method: as §1
# CDCA5, Q96FF9 = biological target: CDCA5, Q96FF9
# Method: as §1
# CDKN2AIPNL, Q96HQ2 = biological target: CDKN2AIPNL, Q96HQ2
# Method: as §1
# CNN3, Q15417 = biological target: CNN3, Q15417
# Method: as §1
# EI24, O14681 = biological target: EI24, O14681
# Method: as §1
# FAM168A, Q92567 = biological target: FAM168A, Q92567
# Method: as §1
# NUP37, Q8NFH4 = biological target: NUP37, Q8NFH4
# Method: as §1
# OGT, O15294 = biological target: OGT, O15294
# Method: as §1
# PCBP2, Q15366 = biological target: PCBP2, Q15366
# Method: as §1
# PDIA4, P13667 = biological target: PDIA4, P13667
# Method: as §1
# PFAS, O15067 = biological target: PFAS, O15067
# Method: as §1
# PSMD6, Q15008 = biological target: PSMD6, Q15008
# Method: as §1
# TOMM6, Q96B49 = biological target: TOMM6, Q96B49
# Method: as §1
# TSPYL2, Q9H2G4 = biological target: TSPYL2, Q9H2G4
# Method: as §1
# TUBB6, Q9BUF5 = biological target: TUBB6, Q9BUF5
# Method: as §1
# ZBTB10, Q96DT7 = biological target: ZBTB10, Q96DT7
# Method: as §1
# BTAF1, O14981 = biological target: BTAF1, O14981
# Method: as §1
# CASP14, P31944 = biological target: CASP14, P31944
# Method: as §1
# CCDC59, Q9P031 = biological target: CCDC59, Q9P031
# Method: as §1
# CHTF18, Q8WVB6 = biological target: CHTF18, Q8WVB6
# Method: as §1
# CHTOP, Q9Y3Y2 = biological target: CHTOP, Q9Y3Y2
# Method: as §1
# CLSPN, Q9HAW4 = biological target: CLSPN, Q9HAW4
# Method: as §1
# CNOT11, Q9UKZ1 = biological target: CNOT11, Q9UKZ1
# Method: as §1
# DECR1, Q16698 = biological target: DECR1, Q16698
# Method: as §1
# DNAJB6, O75190 = biological target: DNAJB6, O75190
# Method: as §1
# ECT2, Q9H8V3 = biological target: ECT2, Q9H8V3
# Method: as §1
# EDF1, O60869 = biological target: EDF1, O60869
# Method: as §1
# ERLIN1, O75477 = biological target: ERLIN1, O75477
# Method: as §1
# FAM136A, Q96C01 = biological target: FAM136A, Q96C01
# Method: as §1
# HDGFL2, Q7Z4V5 = biological target: HDGFL2, Q7Z4V5
# Method: as §1
# HNRNPDL, O14979 = biological target: HNRNPDL, O14979
# Method: as §1
# HNRNPF, P52597 = biological target: HNRNPF, P52597
# Method: as §1
# IDH3B, O43837 = biological target: IDH3B, O43837
# Method: as §1
# IST1, P53990 = biological target: IST1, P53990
# Method: as §1
# KCTD12, Q96CX2 = biological target: KCTD12, Q96CX2
# Method: as §1
# LCLAT1, Q6UWP7 = biological target: LCLAT1, Q6UWP7
# Method: as §1
# MACF1 = biological target: MACF1
# Method: as §1
# MAP7D1, Q3KQU3 = biological target: MAP7D1, Q3KQU3
# Method: as §1
# MAP7D3, Q8IWC1 = biological target: MAP7D3, Q8IWC1
# Method: as §1
# MED20, Q9H944 = biological target: MED20, Q9H944
# Method: as §1
# MXRA7, P84157 = biological target: MXRA7, P84157
# Method: as §1
# NOP2, P46087 = biological target: NOP2, P46087
# Method: as §1
# NOP53, Q9NZM5 = biological target: NOP53, Q9NZM5
# Method: as §1
# OBSL1, O75147 = biological target: OBSL1, O75147
# Method: as §1
# PRPF4, O43172 = biological target: PRPF4, O43172
# Method: as §1
binder,measurement,setting,value
SFLFTVSGMSIQFPL [RP1-206D15.6],PRISMA enrichment of interactor (log2),"ADNP, Q9H2P0",5.83
same,PRISMA enrichment of interactor (log2),"CDC20, Q12834",8.18
same,PRISMA enrichment of interactor (log2),"CDCA5, Q96FF9",4.5
same,PRISMA enrichment of interactor (log2),"CDKN2AIPNL, Q96HQ2",4.36
same,PRISMA enrichment of interactor (log2),"CNN3, Q15417",5.81
same,PRISMA enrichment of interactor (log2),"EI24, O14681",6.91
same,PRISMA enrichment of interactor (log2),"FAM168A, Q92567",4.56
same,PRISMA enrichment of interactor (log2),"NUP37, Q8NFH4",6.21
same,PRISMA enrichment of interactor (log2),"OGT, O15294",4.63
same,PRISMA enrichment of interactor (log2),"PCBP2, Q15366",3.99
same,PRISMA enrichment of interactor (log2),"PDIA4, P13667",4.75
same,PRISMA enrichment of interactor (log2),"PFAS, O15067",3.79
same,PRISMA enrichment of interactor (log2),"PSMD6, Q15008",6.01
same,PRISMA enrichment of interactor (log2),"TOMM6, Q96B49",4.5
same,PRISMA enrichment of interactor (log2),"TSPYL2, Q9H2G4",5.07
same,PRISMA enrichment of interactor (log2),"TUBB6, Q9BUF5",5.1
same,PRISMA enrichment of interactor (log2),"ZBTB10, Q96DT7",5.07
VFEELLSQWDAALKS [RP11-140K17.3],PRISMA enrichment of interactor (log2),"ADNP, Q9H2P0",4.57
same,PRISMA enrichment of interactor (log2),"BTAF1, O14981",4.23
same,PRISMA enrichment of interactor (log2),"CASP14, P31944",4.27
same,PRISMA enrichment of interactor (log2),"CCDC59, Q9P031",4.53
same,PRISMA enrichment of interactor (log2),"CHTF18, Q8WVB6",4.71
same,PRISMA enrichment of interactor (log2),"CHTOP, Q9Y3Y2",5.1
same,PRISMA enrichment of interactor (log2),"CLSPN, Q9HAW4",7.27
same,PRISMA enrichment of interactor (log2),"CNOT11, Q9UKZ1",6.04
same,PRISMA enrichment of interactor (log2),"DECR1, Q16698",8.04
same,PRISMA enrichment of interactor (log2),"DNAJB6, O75190",6.01
same,PRISMA enrichment of interactor (log2),"ECT2, Q9H8V3",4.39
same,PRISMA enrichment of interactor (log2),"EDF1, O60869",5.18
same,PRISMA enrichment of interactor (log2),"ERLIN1, O75477",4.5
same,PRISMA enrichment of interactor (log2),"FAM136A, Q96C01",5.03
same,PRISMA enrichment of interactor (log2),"HDGFL2, Q7Z4V5",4.47
same,PRISMA enrichment of interactor (log2),"HNRNPDL, O14979",4.92
same,PRISMA enrichment of interactor (log2),"HNRNPF, P52597",5.7
same,PRISMA enrichment of interactor (log2),"IDH3B, O43837",5.26
same,PRISMA enrichment of interactor (log2),"IST1, P53990",4.73
same,PRISMA enrichment of interactor (log2),"KCTD12, Q96CX2",7.14
same,PRISMA enrichment of interactor (log2),"LCLAT1, Q6UWP7",8.26
same,PRISMA enrichment of interactor (log2),MACF1,6.02
same,PRISMA enrichment of interactor (log2),"MAP7D1, Q3KQU3",5.46
same,PRISMA enrichment of interactor (log2),"MAP7D3, Q8IWC1",5.18
same,PRISMA enrichment of interactor (log2),"MED20, Q9H944",6.83
same,PRISMA enrichment of interactor (log2),"MXRA7, P84157",3.9
same,PRISMA enrichment of interactor (log2),"NOP2, P46087",4.65
same,PRISMA enrichment of interactor (log2),"NOP53, Q9NZM5",4.91
same,PRISMA enrichment of interactor (log2),"OBSL1, O75147",4.62
same,PRISMA enrichment of interactor (log2),"PRPF4, O43172",5.64

# For reference, part of the list above:
binder,measurement,setting,value
VFEELLSQWDAALKS [RP11-140K17.3],PRISMA enrichment of interactor (log2),"HNRNPDL, O14979",4.92
same,PRISMA enrichment of interactor (log2),"HNRNPF, P52597",5.7
